Results are given in words; binding and its absence hold for the method and conditions named. Binding seen in cells or lysates may run through a third protein. Some results given as binding are weak or reduced against the parent protein; the word gives no strength.

Amino acid sequences for entries named in this document (tags omitted).
UniProt P51532: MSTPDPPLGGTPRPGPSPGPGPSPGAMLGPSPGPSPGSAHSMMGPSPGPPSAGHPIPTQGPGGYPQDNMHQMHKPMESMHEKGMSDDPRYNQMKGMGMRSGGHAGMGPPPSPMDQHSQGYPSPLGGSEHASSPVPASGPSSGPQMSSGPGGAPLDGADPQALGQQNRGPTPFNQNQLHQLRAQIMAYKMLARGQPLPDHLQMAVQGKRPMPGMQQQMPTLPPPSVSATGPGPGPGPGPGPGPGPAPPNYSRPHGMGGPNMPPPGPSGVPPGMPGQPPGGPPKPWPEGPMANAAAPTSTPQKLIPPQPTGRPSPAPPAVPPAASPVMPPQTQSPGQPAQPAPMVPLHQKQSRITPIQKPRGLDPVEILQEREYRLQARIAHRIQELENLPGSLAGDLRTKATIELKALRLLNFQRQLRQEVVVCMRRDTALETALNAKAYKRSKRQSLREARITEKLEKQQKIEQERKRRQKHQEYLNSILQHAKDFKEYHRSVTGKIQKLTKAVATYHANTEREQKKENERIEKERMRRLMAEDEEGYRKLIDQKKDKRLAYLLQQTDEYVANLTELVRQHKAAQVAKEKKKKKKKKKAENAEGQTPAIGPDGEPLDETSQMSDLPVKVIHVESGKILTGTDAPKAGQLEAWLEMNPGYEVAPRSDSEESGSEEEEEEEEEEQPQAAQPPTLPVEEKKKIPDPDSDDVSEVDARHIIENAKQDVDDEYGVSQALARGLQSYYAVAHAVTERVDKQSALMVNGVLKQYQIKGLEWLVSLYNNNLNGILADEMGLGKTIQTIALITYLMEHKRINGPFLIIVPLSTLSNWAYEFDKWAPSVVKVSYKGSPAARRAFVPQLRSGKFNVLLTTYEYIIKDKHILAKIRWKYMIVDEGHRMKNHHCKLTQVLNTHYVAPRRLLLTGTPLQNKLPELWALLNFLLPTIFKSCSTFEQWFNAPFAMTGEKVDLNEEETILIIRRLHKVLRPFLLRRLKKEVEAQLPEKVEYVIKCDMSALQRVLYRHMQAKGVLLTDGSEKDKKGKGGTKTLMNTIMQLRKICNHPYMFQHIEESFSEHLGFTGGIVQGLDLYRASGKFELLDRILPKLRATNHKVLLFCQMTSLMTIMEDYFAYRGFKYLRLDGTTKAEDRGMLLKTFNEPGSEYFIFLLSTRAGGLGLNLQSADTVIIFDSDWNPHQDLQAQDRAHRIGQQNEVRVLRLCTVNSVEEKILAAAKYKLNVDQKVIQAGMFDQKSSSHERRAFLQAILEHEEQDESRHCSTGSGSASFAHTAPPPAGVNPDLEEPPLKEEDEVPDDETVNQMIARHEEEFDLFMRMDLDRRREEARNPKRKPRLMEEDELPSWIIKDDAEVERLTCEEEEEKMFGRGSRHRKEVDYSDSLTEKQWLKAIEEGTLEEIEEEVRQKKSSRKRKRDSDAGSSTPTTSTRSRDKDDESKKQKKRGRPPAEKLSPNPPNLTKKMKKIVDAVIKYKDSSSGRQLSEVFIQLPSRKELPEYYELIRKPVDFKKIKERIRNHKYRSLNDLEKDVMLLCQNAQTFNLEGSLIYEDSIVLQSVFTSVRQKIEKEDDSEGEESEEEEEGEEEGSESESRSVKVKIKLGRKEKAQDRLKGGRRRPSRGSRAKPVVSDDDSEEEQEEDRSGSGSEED
UniProt Q13950: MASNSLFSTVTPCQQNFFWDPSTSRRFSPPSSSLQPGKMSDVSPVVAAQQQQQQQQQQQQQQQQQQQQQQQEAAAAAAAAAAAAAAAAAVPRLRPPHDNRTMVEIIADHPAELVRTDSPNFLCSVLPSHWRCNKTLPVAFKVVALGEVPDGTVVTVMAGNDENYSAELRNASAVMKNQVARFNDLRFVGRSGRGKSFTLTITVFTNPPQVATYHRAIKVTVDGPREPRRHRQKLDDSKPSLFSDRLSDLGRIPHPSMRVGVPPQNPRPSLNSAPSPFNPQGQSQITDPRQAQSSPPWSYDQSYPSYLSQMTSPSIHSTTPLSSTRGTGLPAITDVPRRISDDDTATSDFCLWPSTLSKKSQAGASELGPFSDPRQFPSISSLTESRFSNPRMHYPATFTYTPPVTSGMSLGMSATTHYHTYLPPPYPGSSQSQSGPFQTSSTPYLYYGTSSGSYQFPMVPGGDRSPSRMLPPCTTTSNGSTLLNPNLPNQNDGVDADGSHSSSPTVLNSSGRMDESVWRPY

In the experiment the target is BRG1 (endogenous, RKO cells) (human (endogenous in RKO)) (UniProt P51532). Kind of experiment: co-IP; endogenous proteins in RKO cell lysates; IP with anti-RUNX2, anti-BRG1 or control IgG antibody (1 ug per mg protein, 4 °C, 8-12 h), Protein A/G beads; western blot. For orientation: Immunoblotting shows a protein as a band on a membrane.

“RUNX2 (endogenous, RKO cells) (from UniProt Q13950 1-521)”: the binding result is reported as “binds”.

These data come from publication PMC7559818.
